Results published in article doi:10.1101/2021.02.23.432385.
No constants are given. Whether binding was seen depends on the method and setting. Some binding calls cover weakened binding; strength is not graded here. Where a sequence is shown, tags or fusion partners need not be part of it.

Target: T1, Yjef-N-GST (Edc3 fragment) (S. cerevisiae) (UniProt P39998)
T1 sequence: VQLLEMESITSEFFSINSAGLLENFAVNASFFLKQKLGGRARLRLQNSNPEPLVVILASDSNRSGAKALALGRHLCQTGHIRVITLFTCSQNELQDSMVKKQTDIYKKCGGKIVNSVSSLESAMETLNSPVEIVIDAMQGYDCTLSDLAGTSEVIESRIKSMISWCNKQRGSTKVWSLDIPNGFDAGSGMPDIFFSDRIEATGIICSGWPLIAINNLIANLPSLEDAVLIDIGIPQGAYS
Assay: pull-down

binding: binds
B1: His-Sbp1-FLAG (protein, UniProt P10080 1-294)
chain: MSAEIEEATNAVNNLSINDSEQQPRAPTHKTVIDPEDTIFIGNVAHECTEDDLKQLFVEEFGDEVSVEIPIKEHTDGHIPASKHALVKFPTKIDFDNIKENYDTKVVKDREIHIKRARTPGQMQRGGFRGRGGFRGRGGFRGGFRGGYRGGFRGRGNFRGRGGARGGFNGQKREKIPLDQMERSKDTLYINNVPFKATKEEVAEFFGTDADSISLPMRKMRDQHTGRIFTSDSANRGMAFVTFSGENVDIEAKAEEFKGKVFGDRELTVDVAVIRPENDEEEIEQETGSEEKQE
